Source: patent publication US20180282397A1
No constants are given. Whether binding was seen depends on the method and setting. Some binding calls cover weakened binding; strength is not graded here.

Legend:
K-Ras(G12V)-GTP (human) [1] = assay: radioactive in vitro pull-down
K-Ras(G12V)-GTP (human) [2] = assay: radioactive in vitro pull-down of [35S]Met-labelled RasIn1 on bead-immobilised target [b]
K-Ras(G12V)-GTP (human) [3] = assay: radioactive in vitro pull-down of [35S]Met-labelled RasIn1 on bead-immobilised target [a]
K-Ras(G12V)-GTP (human) [4] = assay: radioactive in vitro pull-down of [35S]-labelled RasIn1 and point mutants on immobilised K-Ras-GTP [a]

binding (K-Ras(G12V)-GTP (human) [1]): binds | binding (K-Ras(G12V)-GTP (human) [2]): binds | binding (K-Ras(G12V)-GTP (human) [3]): binds | binding (K-Ras(G12V)-GTP (human) [4]): binds
B1: RasIn1 (designed binder)
chain: MLEVKEASPTSIQISWGPVFSAYSRYYRITYGETGGNSPVQEFTVPGSKSAATISGLKPGVDYTITVYAVTFRWPMPRLVRPISINYRT
